# Assay results reported in PubChem BioAssay AID1508600 (Functional Genomics Laboratory (NCATS/FGL), 2020).
# Out of some 53,000 sequences screened, about 3,700 (7%) were called active.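 The calls were made as follows: active = gene knockdowns whose robust z-score for IL-1 alpha signal is at least 2 or at most -2, so actives lie on both sides; inactive = the rest.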 Some of the results follow.
# Experiment: Components of the Cytosolic LPS Sensing Pathway: Gene Identification via Genome-wide siRNA Screen;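 also: robust z of the log signal after scaling to non-targeting control siRNA wells of the plate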
# Settings: RAW264.7 macrophages, IL-1a HTRF, actives lie on both sides, screened at 100 nM (by protocol), cells primed 5 h with Pam3CSK4 first
# In short: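 IL-1a HTRF of supernatants after 24 hour LipidA transfection of Pam3CSK4-primed (5 hours) RAW264.7 cells, 48h post-siRNA transfection (100 nM). Scores: percent of plate negative-control median, then log-based robust z-score.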
row,Sequence,z-score
1,GGUGAAGAAUCCACCUGAUTT against Mpzl2,inactive: -0.464
2,GGAGAAAUUAGAGUGAUCGTT against Pcdha1,inactive: -0.698
3,GGCAGCGAAAAGUCAGAUGTT against Sars,inactive: 1.52
4,GGAGGUGAACCAUAGAGAGTT against Csrnp2,inactive: 1.12
5,GGAGUAUCUGCUGUUCAGUTT against Gabpb1,inactive: -0.267
6,GGAGGAAGACCUUCAGAGATT against Ell2,inactive: -0.842
7,AGGAAUGCCCAGGUCUCAGTT against Lst1,inactive: -1.07
8,GGUUUGAGGAGUUAGGUUCTT against Sdhd,inactive: -0.488
9,GGGCACAGACAUGUUUGAGTT against Padi3,inactive: -1.35
10,GGAAAUGACCAAAGAGGCUTT against Vash1,inactive: -1.21
11,GCUCUUCUUACCACUGUAGTT against Wdfy3,inactive: 1.88
12,GGUGCUGAACAAGACCAAGTT against Cyp27a1,inactive: 1.95
13,GGAACAAGCCCAAGAAGAATT against Mxd1,inactive: -0.79
14,GGUUUUCUCACCAUUAUUGTT against Asb13,inactive: -0.617
15,GCUAAGUAACUCUUUUAGGTT against Clock,inactive: -0.274
16,GCAACUGCUUCUAAUAAGATT against P3h3,inactive: 0.674
17,GGCACUUCACAGACUUAGUTT against Selp,inactive: -0.682
18,GGCCCUCUGAGAUUAAUGUTT against Nfkbid,active: 2.58
19,CGAGUUUGAGUACCUGAAATT against Akt1,inactive: -0.291
20,CCUGCAUCGUACGCUACUUTT against Pcgf2,inactive: -1.83
21,CCCUGACCUAUUAAAAGAUTT against Cyp2b19,inactive: 0.82
22,GCUUAUUUCGCCUAUGUGGTT against Slc24a2,inactive: -1.11

row,Sequence,z-score
1,GGCACUUCAACAGCAGUUATT against Cep295,inactive: -1.27
2,GGAGACUUUCAGGAGAUUUTT against Carnmt1,inactive: 1.29
3,GGCUGUCGUCAUUGAAGGATT against Ankrd27,inactive: -0.771
4,GGCUGUUUGCCAAAAAAAATT against Ppp1r16a,inactive: -0.36
5,CGGGCUAUCUGGAACUAUATT against Sesn1,inactive: -0.466
6,CCAUCCAGAUUUAAUAACCTT against Dcbld1,inactive: -0.955
7,GCUGACACAAAACGCAGUCTT against Kcna4,inactive: 0.153
8,GGUGUCCCAGAGUGUAUAATT against Olfr1499,inactive: -0.697
9,GGAGGUCUACCAUUUCACCTT against Cops4,inactive: -0.708
10,GCACAAGUUCAGAAAUGAATT against Sp3os,inactive: 0.521
11,GGCCUACCAGAGAUUUAGATT against Ptgfr,inactive: 1.16
12,CGGCGGAUCUAUGAAGUAGTT against Mrpl1,inactive: 0.105
13,CGGCUGUGUGCAUUUAAAGTT against Bmpr2,inactive: 0.616
14,CCCUGAUGACAGAAGAAUCTT against Tyms,inactive: -0.802
15,GGUUACAGAGCAAAGUCCUTT against Zfp638,inactive: -0.555
16,GGCCAAGUCUGGAAUCACUTT against Angel2,active: -2.42
17,GGAUAAGAAACACAAGAAGTT against Srrm1,active: 2.04
18,GAGCCAAAUCAGGAACAGCTT against Trim29,inactive: 1.4
19,GCAACGACUCUAAUGACUUTT against Slc38a1,inactive: -0.515
20,CAGUUCCGUACAGUUUUACTT against H3c1,inactive: 1.16
21,GCUGAUUUCCAAAGAUAAUTT against Glycam1,inactive: -1.08
22,CCACAUCUAGGCAAGGAACTT against Pmel,inactive: -0.909

row,Sequence,z-score
1,GGGACCCAGACAUUACAUGTT against Cldn6,inactive: 0.445
2,CCCUCAAAUAACAUCCAGGTT against Sh3d21,inactive: -1.93
3,GGAGCUGAAAAUCCAGCUGTT against Sdsl,inactive: -0.102
4,CCAGAUCGGGAAAAAGGGUTT against Tsn,active: -2.04
5,CGGCUUUGCACCAUACUUATT against Galnt12,inactive: 0.601
6,GCGGACCUUGUCCUAUAACTT against Slc9a2,inactive: -1.5
7,GGACAGAUUUUCACCAUUCTT against Slc1a4,inactive: -0.593
8,GGAAAGAAAUGAAUCAGUATT against Rnf216,inactive: 0.882
9,CGAAGUGGUCAAGUUCUCUTT against Fbxo17,active: -2.09
10,GGCACUUUUGAUUUCAGAUTT against Nrd1,active: 3.52
11,CCUUCUAUUUAUAAGACCUTT against Lrch4,inactive: 1.04
12,GGACUCACUCCUUCCAUCATT against Pphln1,inactive: 0.386
13,GGAUCCAGAAAGUCCAGAUTT against Nt5c3b,inactive: 0.918
14,GGCGAACAACUGGAACGCATT against Snap25,inactive: -0.839
15,GGACUUCACAAGAGUAUUATT against She,inactive: 1.8
16,GCAACUUACUUGAUCUGAATT against Ap2b1,inactive: -0.292
17,GCGAUGAGACAGAUGUCGATT against Tcof1,inactive: -0.0757
18,GGUGAUUGAUGAGAUUUACTT against Fbxo28,inactive: 0.288
19,GGUGACCUCUCAGAGGUACTT against Kctd14,inactive: 0.96
20,GGUGAACUUGUGUCUCACUTT against Tango2,inactive: 0.0582
21,GGCCAUUUACUUGAAGAACTT against Lpin3,inactive: -0.0508
22,GGUUUGUGAAUCUUAUCUCTT against Las1l,inactive: 0.38

# Two entries from above, set out differently.
row	Sequence	z-score
10	GGCACUUUUGAUUUCAGAUTT against Nrd1	active: 3.52
11	CCUUCUAUUUAUAAGACCUTT against Lrch4	inactive: 1.04

# Next records follow.

row,Sequence,z-score
1,GCGCAUGUACAACACUCUATT against Abcf3,inactive: -0.353
2,GGAGACUUUGAAAAAAGACTT against Mrps31,inactive: 0.5
3,GGACAAGGAAUUAGGAGGATT against LOC626846,inactive: -0.858
4,GCCAAGUUUGAACUUCGGATT against Elovl6,inactive: 0.151
5,CCUAGCCAGCUAUGAUGUCTT against Mcoln1,inactive: -1
6,GGAAAACUGGACAGAAAAUTT against Ndufb4,inactive: -1.07
7,GCUUUUGCCAAGCAUAAUATT against Crot,inactive: -0.452
8,CCAUUCAGAUCCUCUUCACTT against Olfr48,inactive: -1.08
9,GCGAACACGAUUCAUUUAGTT against Suds3,inactive: 0.903
10,GGGAUCUUACAUGCCACCATT against Olfr1231,inactive: -0.000779
11,GGACCUUGAGAAAGUAGUCTT against Ms4a10,inactive: 0.651
12,GGAGUGAUGUUCAUUCUGGTT against Tspan5,inactive: -0.092
13,GGACAAAAGAUGAAUGCUCTT against Msln,inactive: -0.246
14,GGAGACGACUCCAUUCACATT against Thbs3,inactive: -1.92
15,CCCUAACAUCUCUUUGUUGTT against Slc15a3,inactive: -0.095
16,CCUUUUACUGCUCACCGACTT against Sass6,inactive: 1.38
17,GGUUGAAACGAGUUUUGAATT against Zbtb5,inactive: 0.00556
18,GGACUUUGUCAACCAUGUCTT against Fbxl5,inactive: -0.0144
19,GCCUGAUAUCAACAUAGGATT against Pth2r,inactive: 0.802
20,GCUUGUUUAGUAUACAGCCTT against Mterf4,inactive: -0.373
21,GGUAUUCUUCUGUCUAUGATT against Olfr1107,inactive: 0.452
22,GGAUGUUGUUUAUCGAGGATT against Med21,inactive: -0.572

# 5 neighbouring records already listed, for reference:
row,Sequence,z-score
15,CCCUAACAUCUCUUUGUUGTT against Slc15a3,inactive: -0.095
16,CCUUUUACUGCUCACCGACTT against Sass6,inactive: 1.38
17,GGUUGAAACGAGUUUUGAATT against Zbtb5,inactive: 0.00556
18,GGACUUUGUCAACCAUGUCTT against Fbxl5,inactive: -0.0144
19,GCCUGAUAUCAACAUAGGATT against Pth2r,inactive: 0.802

# (listing goes on)

row,Sequence,z-score
1,GGUAUGUCUGAUGCAUAGGTT against Mos,inactive: 0.421
2,GAGCCAAGUACCAUCUAUATT against Olfr389,active: 2.28
3,GGAGAAGAUAAAAUGGAUGTT against Ptbp2,inactive: 0.675
4,CCUCAAUAUGAAUAAAGUGTT against Marchf1,inactive: 0.0232
5,GGAAGUACAAUGCAAUCAATT against Obox3,inactive: -0.429
6,CCUAGAGUACUAUUAAAAGTT against Srrm2,inactive: -1.12
7,CCUGUGGAUCCAUUUGUUCTT against Tex15,active: -2.25
8,CCUAAAAACUCUGGAUUCUTT against Dennd6a,inactive: -0.0995
9,GCAAAGUUGAGUGCACUUATT against Scrn1,inactive: -0.00924
10,CCAUCAUGAACAGCCAGCUTT against Olfr463,inactive: -0.44
11,GGAAGAGAAUAGAUCCUAUTT against Zbtb8a,inactive: -0.388
12,GGAUCACCCAUACAGGAACTT against Pla2g2f,active: -2.1
13,CCAAGUCCUUCAUCGAAUATT against Kif1a,inactive: 1.4
14,GGCCAAGAUUAGAUUGCUUTT against Senp2,active: 2.57
15,GGCUAUUGUUGGUAGAACUTT against Dek,inactive: 0.441
16,GGAGCACAUGCUGAAGGAUTT against Wwc1,inactive: 0.747
17,GCACGGUCUUAUUGAGAGGTT against Zfp787,inactive: 0.485
18,GGAAGACAAUGGUGUGAAATT against Pgm3,inactive: -0.74
19,GGAUUUAACUCCAUUUCAATT against Tlr3,inactive: 0.337
